From publication PMC7298006
Results are given in words; binding and its absence hold for the method and conditions named. Binding seen in cells or lysates may run through a third protein. Some results given as binding are weak or reduced against the parent protein; the word gives no strength.

Chains of the proteins cited; added tags and fusions are not shown.
UniProt Q04206: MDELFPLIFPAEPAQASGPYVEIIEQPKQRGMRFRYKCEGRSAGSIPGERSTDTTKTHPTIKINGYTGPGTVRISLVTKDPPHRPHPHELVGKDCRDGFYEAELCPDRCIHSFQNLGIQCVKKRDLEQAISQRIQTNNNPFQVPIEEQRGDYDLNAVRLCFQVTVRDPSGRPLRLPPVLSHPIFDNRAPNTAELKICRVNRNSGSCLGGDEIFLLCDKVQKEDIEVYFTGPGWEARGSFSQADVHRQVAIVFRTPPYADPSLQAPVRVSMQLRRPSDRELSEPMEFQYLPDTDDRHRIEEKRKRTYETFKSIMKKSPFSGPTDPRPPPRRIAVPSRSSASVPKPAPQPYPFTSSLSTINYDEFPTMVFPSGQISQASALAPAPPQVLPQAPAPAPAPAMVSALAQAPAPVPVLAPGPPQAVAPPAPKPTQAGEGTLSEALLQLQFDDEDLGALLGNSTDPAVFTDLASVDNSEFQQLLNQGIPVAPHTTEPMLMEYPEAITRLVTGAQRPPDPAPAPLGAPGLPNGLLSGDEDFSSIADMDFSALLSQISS
UniProt Q92841: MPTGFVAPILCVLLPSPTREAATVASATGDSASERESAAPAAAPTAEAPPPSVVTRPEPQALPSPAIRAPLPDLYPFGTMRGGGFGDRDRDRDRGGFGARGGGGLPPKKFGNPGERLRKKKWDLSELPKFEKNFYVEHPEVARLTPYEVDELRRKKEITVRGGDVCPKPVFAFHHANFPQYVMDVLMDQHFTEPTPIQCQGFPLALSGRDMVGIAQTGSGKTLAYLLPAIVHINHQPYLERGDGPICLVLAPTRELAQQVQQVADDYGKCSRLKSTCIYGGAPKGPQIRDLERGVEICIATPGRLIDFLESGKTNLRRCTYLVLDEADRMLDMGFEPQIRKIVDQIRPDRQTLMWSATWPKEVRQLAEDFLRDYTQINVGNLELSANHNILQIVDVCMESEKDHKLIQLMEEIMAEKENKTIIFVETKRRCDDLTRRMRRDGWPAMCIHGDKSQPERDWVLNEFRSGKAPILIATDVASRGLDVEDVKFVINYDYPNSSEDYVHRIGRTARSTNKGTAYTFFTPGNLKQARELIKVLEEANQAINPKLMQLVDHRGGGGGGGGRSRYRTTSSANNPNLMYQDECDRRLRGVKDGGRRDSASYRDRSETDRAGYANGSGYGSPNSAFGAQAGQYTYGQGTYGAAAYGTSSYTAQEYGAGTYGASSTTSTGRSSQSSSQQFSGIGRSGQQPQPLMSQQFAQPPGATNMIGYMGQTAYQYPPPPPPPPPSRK

Tests used:
[1] = biological target: RELA (endogenous) (human (endogenous in HEK 293T-LTR-GFP)) (UniProt Q04206); experiment: co-IP; RNA-free IP: cell extracts pre-treated with RNAse A before IP
[2] = biological target: RELA (endogenous) (human (endogenous in HEK 293T-LTR-GFP)) (UniProt Q04206); experiment: co-IP; 293T-LTR-GFP (HEK) cells transfected with pSG5M-Tax-WT or pSG5M-M22, harvested 48 h after transfection (also M22-expressing cells exposed to TNFα, 10 ng/ml, 24 h); IP lysis buffer 20 mM Tris-HCl pH 7.5, 150 mM NaCl, 2 mM EDTA, 1% NP-40, 10% glycerol; extracts incubated overnight with 5 µg anti-DDX17, anti-Tax or anti-RELA and Dynabeads Protein A/G; immunoblot
[3] = biological target: Tax of HTLV-1 (wild type) (HTLV-1) (UniProt P03409); experiment: as above
[4] = biological target: DDX17 (endogenous, isoforms p72 and p82) (human (endogenous in HEK 293T-LTR-GFP)) (UniProt Q92841); experiment: as above

Row | Substance | binding [1] | binding [2] | binding [3] | binding [4]
1 | DDX17 (endogenous, isoforms p72 and p82) (from UniProt Q92841 1-729) | binds | binds | binds | 
2 | RELA (endogenous) (from UniProt Q04206 1-551) |  |  | binds | binds
3 | Tax of HTLV-1 (wild type) (from UniProt P03409 1-353) |  |  |  | binds
